{
  "source": "paper PMC10457348",
  "biological_target": "T1, Duffy antigen receptor for chemokines (DARC) on Duffy positive (Fy+) human red blood cells (human (endogenous in red blood cells)) (UniProt Q16570)",
  "T1 sequence": "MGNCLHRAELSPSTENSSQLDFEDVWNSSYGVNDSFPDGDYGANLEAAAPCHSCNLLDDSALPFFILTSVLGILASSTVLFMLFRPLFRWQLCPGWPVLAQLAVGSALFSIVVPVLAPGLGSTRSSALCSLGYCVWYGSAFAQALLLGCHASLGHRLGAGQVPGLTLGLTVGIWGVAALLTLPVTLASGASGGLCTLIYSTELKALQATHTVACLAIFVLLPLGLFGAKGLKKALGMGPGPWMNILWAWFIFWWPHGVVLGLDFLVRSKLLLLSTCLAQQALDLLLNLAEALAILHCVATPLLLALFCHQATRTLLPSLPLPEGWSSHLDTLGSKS",
  "assay": "erythrocyte binding assay; 1 x 10^8 human RBCs (Fy+ or Fy-) with 1 ug PvDBPII in RPMI 1640, 10% FBS, 45 min, room temperature; spun through silicone/nujol oil; bound protein eluted with 300 mM NaCl and detected by Western blotting; only the binder purified",
  "note": "Results are given in words; binding and its absence hold for the method and conditions named. Some binding calls cover weakened binding; strength is not graded here.",
  "data": [
    {"substance": "Recombinant Plasmodium vivax Duffy Binding Protein region II, variant Salvador I (PvDBPII SalI) (from UniProt P22290 211-525) (domain or fragment)", "values": [
      {"measurement": "binding", "result": "binds"}
    ]}
  ]
}
